# Reference: PubChem BioAssay AID686938 (Drosophila RNAi Screening Center, 2013)
# Assay: 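Fly genes required for calcium entry once internal stores are emptied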 (primary screen)
# Cells: Drosophila S2R+ cells
# Reagents: long dsRNA against Drosophila genes, about 0.25 µg dsRNA per well, roughly 10,000 cells
# Time to read-out: 5 days of knock-down before the calcium assay
# Conditions: thapsigargin (SERCA pump blocker) to empty calcium stores; entry signal taken 4 min after adding it
# Detection: 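Per-well fluo-4 fluorescence in two replicates, unnormalised, measured in resting cells and 4 min after store depletion by the SERCA blocker thapsigargin; ratio of the two present in few wells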
# Reading the numbers: calcium entry signal: higher = stronger calcium signal after store depletion; entry to resting ratio: higher = more calcium entry relative to resting level; resting calcium signal: higher = higher resting calcium signal
# Hit rule: 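Called when the plate z-score of the entry-to-rest ratio, mean of duplicates, falls below −3; wells with low overall dye signal (Fmax z below −2) or more than five off-targets excluded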
# Calls: active = strongly reduced calcium entry; inactive = no strong reduction
# The screen tested about 23,000 reagents; this is a random part of those with a known target gene and a result. Of all reagents, 75 (0.33%) are marked active. 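Raw plate signals without normalisation; calls rest on plate z-scores that were not deposited; ratio present for only 364 wells.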 A plus sign joins genes that one reagent is predicted to hit. Not given: the dose of the treatment.
target gene,DRSC id,"calcium entry signal, replicate 1 (fluorescence units)","calcium entry signal, replicate 2 (fluorescence units)",entry to resting ratio,"resting calcium signal, replicate 1 (fluorescence units)","resting calcium signal, replicate 2 (fluorescence units)",outcome
Adk2,DRSC09827,5.71e7,3.97e7,,3.42e7,1.67e7,inactive
Gabat,DRSC10846,3.49e7,5.42e7,,1.70e7,2.16e7,inactive
da,DRSC03517,5.45e7,6.03e7,,2.22e7,2.56e7,inactive
Dhit,DRSC07411,3.11e7,3.47e7,,1.53e7,1.61e7,inactive
CG11980,DRSC14456,3.61e7,3.68e7,,1.65e7,1.70e7,inactive
Dpp10,DRSC00942,3.94e7,4.61e7,,2.03e7,1.99e7,inactive
Dpp10,DRSC02139,2.80e7,2.90e7,,1.39e7,1.39e7,inactive
Gr22c,DRSC22081,4.29e7,5.01e7,,2.16e7,2.94e7,inactive
Lk6,DRSC12867,3.34e7,3.16e7,,1.62e7,1.75e7,inactive
Lk6,DRSC16728,3.52e7,4.05e7,,1.59e7,1.86e7,inactive
Gs1,DRSC00753,3.65e7,,,1.76e7,,inactive
CG7724,DRSC10905,2.68e7,3.68e7,,1.22e7,2.26e7,inactive
PGRP-SD,DRSC10856,3.31e7,4.35e7,,1.54e7,2.08e7,inactive
jv,DRSC08831,3.39e7,4.91e7,,1.71e7,2.34e7,inactive
jv,DRSC08832,2.85e7,5.26e7,,1.50e7,2.26e7,inactive
CG12003,DRSC08214,4.18e7,5.08e7,,2.11e7,2.18e7,inactive
CG6628,DRSC10679,3.05e7,3.58e7,,1.67e7,1.77e7,inactive
CG17528,DRSC07761,2.92e7,3.67e7,,1.42e7,1.51e7,inactive
Best4,DRSC10792,3.27e7,4.16e7,,1.90e7,1.64e7,inactive
Hinfp,DRSC18484,2.80e7,4.52e7,2,1.42e7,1.79e7,inactive
CG6738,DRSC16104,4.22e7,3.79e7,,1.97e7,1.57e7,inactive
mtt,DRSC05106,2.34e7,5.31e7,,1.34e7,5.04e7,inactive
mtt,DRSC05107,2.11e7,5.85e7,,1.20e7,5.56e7,inactive
mtt,DRSC06753,5.49e7,3.28e7,,2.47e7,1.58e7,inactive
mtt,DRSC07235,5.58e7,4.44e7,,2.51e7,1.81e7,inactive
CG42490 (retired record),DRSC01649,1.52e7,3.49e7,,1.26e7,1.53e7,inactive
Archease,DRSC16025,3.61e7,5.15e7,,5.16e7,2.31e7,inactive
Nep4,DRSC15539,4.25e7,3.53e7,,2.20e7,1.65e7,inactive
Gmppa,DRSC07108,3.82e7,3.63e7,,1.95e7,1.62e7,inactive
Nse1,DRSC02147,3.27e7,,,1.55e7,,inactive

The list goes on, starting with the last 6 of the part before.
target gene,DRSC id,"calcium entry signal, replicate 1 (fluorescence units)","calcium entry signal, replicate 2 (fluorescence units)",entry to resting ratio,"resting calcium signal, replicate 1 (fluorescence units)","resting calcium signal, replicate 2 (fluorescence units)",outcome
mtt,DRSC07235,5.58e7,4.44e7,,2.51e7,1.81e7,inactive
CG42490 (retired record),DRSC01649,1.52e7,3.49e7,,1.26e7,1.53e7,inactive
Archease,DRSC16025,3.61e7,5.15e7,,5.16e7,2.31e7,inactive
Nep4,DRSC15539,4.25e7,3.53e7,,2.20e7,1.65e7,inactive
Gmppa,DRSC07108,3.82e7,3.63e7,,1.95e7,1.62e7,inactive
Nse1,DRSC02147,3.27e7,,,1.55e7,,inactive
CR40282,DRSC07814,2.97e7,3.79e7,,1.65e7,1.67e7,inactive
Nph,DRSC16342,4.30e7,5.69e7,,2.22e7,2.60e7,inactive
HnRNP-K,DRSC07585,4.66e7,4.24e7,,2.19e7,2.28e7,inactive
HnRNP-K,DRSC22734,3.45e7,3.47e7,,1.92e7,1.58e7,inactive
GILT1,DRSC16565,3.96e7,4.83e7,,1.62e7,2.10e7,inactive
CG3662,DRSC00626,3.99e7,,,2.38e7,,inactive
Dic61B,DRSC08588,3.54e7,4.06e7,,1.75e7,1.97e7,inactive
CG13032,DRSC09912,3.08e7,6.73e7,,1.63e7,2.57e7,inactive
Hao + Pex6,DRSC06097,4.93e7,4.37e7,,2.10e7,1.84e7,inactive
Hao + Pex6,DRSC06704,3.99e7,3.81e7,,1.87e7,1.47e7,inactive
RagC-D,DRSC07239,5.54e7,3.36e7,,2.16e7,1.65e7,inactive
lncRNA:CR34046,DRSC14075,4.94e7,4.05e7,,2.71e7,1.70e7,inactive
CG34461,DRSC10767,2.01e7,3.63e7,,9.64e6,1.35e7,inactive
Piezo,DRSC03092,4.53e7,,,2.57e7,,inactive
Piezo,DRSC03391,3.33e7,4.61e7,,1.55e7,1.87e7,inactive
mAcon1,DRSC01853,3.61e7,5.24e7,,1.67e7,1.95e7,inactive
MED27,DRSC12205,3.41e7,2.25e7,,1.62e7,1.12e7,inactive
Psn,DRSC11743,2.44e7,4.34e7,,1.16e7,1.71e7,inactive
CG33093,DRSC15775,3.69e7,2.39e7,,1.70e7,1.23e7,inactive
Hr83,DRSC12521,3.10e7,2.69e7,,1.60e7,1.39e7,inactive
unpg,DRSC07713,3.83e7,4.32e7,,1.75e7,1.74e7,inactive
CG7110,DRSC03011,3.82e7,,,1.78e7,,inactive
CG7110,DRSC03012,3.51e7,2.26e7,,1.64e7,1.04e7,inactive
CG43074,DRSC08044,3.46e7,4.65e7,,1.60e7,2.06e7,inactive
Snx3,DRSC16027,3.80e7,4.19e7,,2.05e7,2.22e7,inactive
stl,DRSC04396,3.95e7,,,1.98e7,,inactive
CG11597,DRSC09847,4.36e7,3.26e7,,2.94e7,1.35e7,inactive
Rtel1,DRSC18343,2.88e7,4.73e7,,1.48e7,2.10e7,inactive
